This passage reports binding results from article PMC10535004, “Investigation of Peptides for Molecular Recognition of C-Reactive Protein–Theoretical and Experimental Studies” (Analytical Chemistry, 2023).

For one assay, the target named is T1, P3 peptide.
T1 sequence (peptide): VHWDFRQWWQPS
In words: differential pulse voltammetry (electrochemical); P3 peptide covalently immobilised on TESPSA-silanised ITO, blocked with 1% BSA; 20 uL protein in PBS pH 7.4 for 30 min at room temperature; 1 mM Fc(CH2OH)2 in PBS as redox probe; drop of peak current fitted with the Hill equation, Kd = KA^n; both purified.

Assay [1] has as its target T2, C-reactive protein (human, UniProt P02741 19-224).
T2 construct: C-reactive protein (CRP), cyclic pentamer of five identical, noncovalently connected subunits of 206 amino acids each (printed); PDB 3PVO was used only for docking; also called CRP
T2 sequence (looked up): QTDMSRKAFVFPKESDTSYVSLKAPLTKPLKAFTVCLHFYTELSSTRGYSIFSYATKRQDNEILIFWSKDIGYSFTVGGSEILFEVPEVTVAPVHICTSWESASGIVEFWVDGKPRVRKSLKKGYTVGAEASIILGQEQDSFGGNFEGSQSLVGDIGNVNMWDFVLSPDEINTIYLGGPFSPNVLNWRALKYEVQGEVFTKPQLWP
In words: plaque test (ratio of eluted to added phages, O/I); phage clones on CRP; binding efficiency expressed as the ratio of the eluted to added phages; details in the Supporting Information.

Assay [2] has as its target T2, C-reactive protein. In words: ELISA; phage clones on CRP, phages detected by the enzymatic reaction of tagged anti-M13 antibodies, absorbance at 450 nm, compared with WT phage.

These are yes or no findings as the source states them, for the method shown. Some binding calls cover weakened binding; strength is not graded here.

For troponin T (from UniProt P45379 1-298), in the assay with P3 peptide, the binding result is “no binding (tested: 2.5 μg mL^–1)”.

B1: P2 peptide (peptide)
peptide: GGSDPEGMQGNY
notes: 12-mer identified by phage display against CRP; Immobilised on gold plates for PM-IRRAS; method is in the Supporting Information; also called peptide P2; source: synthetic peptide
With B1, the binding result is recorded as “binds” in the assay with C-reactive protein [1] and “binds weakly” with C-reactive protein [2].
